Measurements reported in article PMC3975076, “High-throughput binding characterization of RNA aptamer selections using a microplate-based multiplex microcolumn device”.
The exact form of at least one protein or probe is not confirmed. For some of these results: Where a protein sequence is shown, tags need not be part of it.

By UniProt entry, the sequences of proteins in these tests, tags left out. Where a name states a change or a piece, a line headed by the entry shows the natural chain unless it says otherwise.
UniProt Q00613: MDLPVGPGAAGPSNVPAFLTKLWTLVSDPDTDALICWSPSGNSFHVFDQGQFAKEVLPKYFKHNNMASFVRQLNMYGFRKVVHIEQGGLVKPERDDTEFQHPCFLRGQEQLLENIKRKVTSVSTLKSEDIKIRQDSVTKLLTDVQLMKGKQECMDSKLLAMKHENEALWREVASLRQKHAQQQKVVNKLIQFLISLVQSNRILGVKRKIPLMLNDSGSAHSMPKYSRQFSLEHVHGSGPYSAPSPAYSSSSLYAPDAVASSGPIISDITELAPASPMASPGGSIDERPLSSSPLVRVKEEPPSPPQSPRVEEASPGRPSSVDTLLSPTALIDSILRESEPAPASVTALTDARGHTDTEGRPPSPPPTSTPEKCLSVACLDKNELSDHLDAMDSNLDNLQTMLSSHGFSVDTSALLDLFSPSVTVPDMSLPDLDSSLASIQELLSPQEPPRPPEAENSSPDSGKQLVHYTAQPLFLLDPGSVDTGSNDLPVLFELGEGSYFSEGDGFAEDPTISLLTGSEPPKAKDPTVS

Key:
Experiment in all cases: affinity microcolumn + qPCR
NELF-E (Drosophila) = target: T1, NELF-E (Drosophila) (UniProt P92204); conditions: serial: 4.75 nM N70 library + 50 pM each aptamer/BBS, 1 mL, recombinant protein, protein details: His6
T1 sequence (looked up, limits assumed): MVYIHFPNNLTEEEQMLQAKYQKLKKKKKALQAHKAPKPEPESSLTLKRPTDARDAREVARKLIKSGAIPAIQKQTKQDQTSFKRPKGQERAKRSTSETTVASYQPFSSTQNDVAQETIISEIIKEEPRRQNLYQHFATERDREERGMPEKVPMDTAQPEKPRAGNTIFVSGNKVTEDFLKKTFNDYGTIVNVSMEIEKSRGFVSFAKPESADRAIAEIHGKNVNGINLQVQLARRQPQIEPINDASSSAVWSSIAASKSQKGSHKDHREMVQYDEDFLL

[1] = target: hHSF1 (heat shock factor 1) (human) (UniProt Q00613); conditions: serial: 4.75 nM N70 library + 50 pM each aptamer/BBS, 1 mL, recombinant protein, protein details: GST
GFP = conditions: value is average over all 7 other targets; serial: 4.75 nM N70 library + 50 pM each aptamer/BBS, 1 mL; recombinant protein; protein details: His6; counted as no binding
UBLCP1 = conditions: average of Ni-NTA targets, serial: 4.75 nM N70 library + 50 pM each aptamer/BBS, 1 mL, recombinant protein, protein details: His
[2] = value is average over all 7 other targets, counted as no binding
[3] = average of non-Ni-NTA targets, background

AGCUUCUGGACUGCGAUGGGAGCACGAAACGUCGUGGCGCAAUUGGGUGGGGAAAGUCCUUAAAAGAGGGCCACCACAGAAGCU [GFPapt (AP3-1)]
binding signal (fold enrichment over N70 library) (NELF-E (Drosophila); [2]): 0.6 | binding signal (fold enrichment over N70 library) [1, 2]: 0.6

GGGAAUGGAUCCACAUCUACGAAUUCAAUCAAGUCCCCAGACUCAGCAACACUGGACAGCGAUAUGCAGAUAACCAAGACCAAUUCACUCCAGUUCACUGCAGACUUGACGAAGCUU [HSFapt]
binding signal (fold enrichment over N70 library) (GFP): 2 | binding signal (fold enrichment over N70 library) (NELF-E (Drosophila); [2]): 2 | binding signal (fold enrichment over N70 library) ([1]; hHSF1 0.6 ug/uL resin, serial): 232

GGGAAUGGAUCCACAUCUACGAAUUCCCAACGACUGCCGAGCGAGAUUACGCUUGAGCGCCCCACUGAGGAUGCCCACGGGCGAUUGGGGCACGGCUUCACUGCAGACUUGACGAAGCUU [NELFapt]
binding signal (fold enrichment over N70 library) (GFP): 1.6 | binding signal (fold enrichment over N70 library) [1, 2]: 1.6

GGGAAUGGAUCCACAUCUACGAAUUCCGAAGCUCGUGACGGUACCUCCUAAAAUGUCCAUGGGGAAGGGAGGGAAUGGGAAGGACAAUCGGACACCGUUCACUGCAGACUUGACGAAGCUU [BBS2]
binding signal (fold enrichment over N70 library) (NELF-E (Drosophila); average of Ni-NTA targets, attributed to Ni-NTA resin): 311 | binding signal (fold enrichment over N70 library) (UBLCP1; attributed to Ni-NTA resin): 311 | binding signal (fold enrichment over N70 library) [1, 3]: 13

GGGAAUGGAUCCACAUCUACGAAUUCCGCAGGGCUAGCCGCAUGCUCAGGCCUGGCGGGUAGGGAGUUAGGGUAGGGAGACCAGGAGAGCUGGCUUCACUGCAGACUUGACGAAGCUU [BBS1]
binding signal (fold enrichment over N70 library) (NELF-E (Drosophila); average of Ni-NTA targets, attributed to resin): 5.1 | binding signal (fold enrichment over N70 library) (UBLCP1; attributed to resin): 5.1 | binding signal (fold enrichment over N70 library) [1, 3]: 1.7
